Reference: PubChem BioAssay AID2685 (National Center for Advancing Translational Sciences (NCATS), 2010)
Several values for one entry are separate records, joined by “and”; a condition that tells them apart may be missing. Identical values can stand only once. The list shows a part of the results. Shown are side measurements of this screen, not its main read-out; they come without a call. The list favours compounds with an active or inconclusive main result. Potencies come from curve fits of mixed quality, noted in brackets.

Assay: qHTS Assay for Lipid Storage Modulators in Drosophila S3 Cells;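 for cell number change: cells counted by Cell Tracker Red CMTPX staining in the red channel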
Conditions: BODIPY lipid droplet fluorescence, 18-24 h; for cell number change: measured here: cell count max response, cells fed with added oleic acid
Summary of the method: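 Drosophila S3 cells loaded with oleic acid (400 uM, as added) and compounds at several concentrations; lipid droplets imaged by 488-nm laser-scanning cytometry, 500–530 nm intensity and object ratio to cell channel. Percent activity normalized to 20 uM Triacsin C.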

[1] = measured here: cell number channel AC50, cells fed with added oleic acid
[2] = measured here: lipid fluorescence (Fed channel) AC50, cells fed with added oleic acid

Structure (SMILES)	cell number change	AC50 [1]	AC50 [2]
COCCN(CCOC)Cc1c(C)[nH]c2c(C)c(C)ccc2c1=O	-35.2%	25.9 µM [falling, single point]	25.9 µM [falling, single point]
Cc1ccc(NC(=O)CSCC(=O)N2CCN(c3cccc(C(F)(F)F)c3)CC2)cc1	1.47%		29.1 µM [falling, single point]
COc1cc(CC(=O)OCC(=O)N2CC(C)CC(C)C2)cc(OC)c1OC (stereo not given)	-24.6%	2.06 µM [falling, full curve, poor fit]	6.51 µM [falling, single point]
NNC(=O)/C=C/c1ccc(Cl)cc1Cl	56.2%	29.1 µM [rising, single point]	0.461 µM [rising, full curve, poor fit]
Cc1cc(C)n(C(=O)Cn2nc([N+](=O)[O-])cc2C)n1	7.52%		
CC(C)(C)n1ncc2c(=O)n(CC(=O)Nc3ccccc3)cnc21	9.82%		29.1 µM [rising, single point]
CC(C)Cc1nnc(NC(=O)CCC(=O)N2CCN(c3ccccc3)CC2)s1	11.6%	8.2 µM [rising, partial curve, poor fit]	
Cc1ccc2c(COC(=O)C34CC5CC(CC(C5)C3)C4)cc(=O)oc2c1	0.489%		0.103 µM [rising, full curve, poor fit]
CN(C)/C=C/C(=O)c1ccc(F)cc1	-23.1%		29.1 µM [falling, single point]
COc1cccc(OC)c1C(=O)OCC(=O)NC1CCCCCC1	-29.9%		0.731 µM [falling, full curve]
O=c1[nH]c2ccccc2nc1/C=C/c1ccccc1	-16.5%		32.6 µM [falling, single point]
O=C(CN1CCCC1)NCC12CC3CC(CC(C3)C1)C2	31.2%	32.6 µM [rising, single point]	
CCC(=O)Oc1ccc(C(=O)Nc2ccc([N+](=O)[O-])cc2)cc1	11%		
N#CCCN(Cc1cccnc1)C(=S)Nc1ccccc1Cl		6.51 µM [rising, single point]	0.731 µM [rising, full curve]
COc1ccc(S(N)(=O)=O)cc1C(=O)NNC(=O)CN(C)S(=O)(=O)c1ccc(Cl)cc1	-20.7%		3.26 µM [falling, partial curve, poor fit]
CCOc1cc(C(c2c(C)[nH][nH]c2=O)c2c(C)[nH][nH]c2=O)ccc1O	8.93%		14.6 µM [falling, partial curve]
COc1cccc(C2C(C#N)=C(N)OC(C(C)(C)C)=C2C#N)c1 (stereo not given)	-35.1%	7.31 µM [falling, partial curve]	
CC(C)NC(=O)CN(C(=O)CCC(=O)Nc1ccccn1)c1ccc(F)c(Cl)c1	-9.15%		
N#Cc1ccccc1NC(=O)c1ccccc1OCC(=O)NCc1ccco1			6.51 µM [rising, partial curve, poor fit]
Cc1ccc2nc(C)cc(C(=O)N/N=C/c3ccncc3)c2c1	15.8%		0.794 µM [rising, full curve, poor fit]
O=C(CCc1ccccc1)NCc1ccc2c(c1)OCO2	9.89%		13 µM [rising, partial curve]

Structure (SMILES)	cell number change	AC50 [1]	AC50 [2]
COc1ccc(N2CCN(C(=O)CN(C3CCCCC3)S(C)(=O)=O)CC2)cc1	-29.3%		1.3 µM [falling, full curve]
CCN(c1ccccc1)S(=O)(=O)c1ccc(Cl)c(NC(=O)Nc2ccc(Cl)cc2C#N)c1	19.9%		4.11 µM [rising, single point]
CS(=O)(=O)Nc1cccc(C2=NN(C(=O)c3ccccc3)C(c3cccs3)C2)c1 (stereo not given)	-18.1%		
Cc1occc1C(=O)NC1CCCCCCC1	21.2%		2.91 µM [rising, single point]
C=CCSc1nnc(-c2ccccc2NC(=O)CC)c(=O)[nH]1	-8.89%		4.11 µM [falling, full curve]
C=CCc1cccc(CNc2cnc3ccccc3c2)c1O	-46.4%	20.6 µM [falling, single point]	
Cc1ccc(SCc2ccc(C(=O)Nc3cccnc3)cc2)cc1	16.7%		
CCN(CC)C(=O)c1[nH]cnc1C(=O)N[C@H](C)c1ccccc1	-12.2%		2.06 µM [falling, single point]
Brc1ccc(-c2csc(N/N=C/c3ccco3)n2)cc1	24.1%		
CCC(C)C(=O)Nn1c(C2CC2)nc2cc(OC)c(OC)cc2c1=O (stereo not given)	32.1%		16.4 µM [rising, single point]
CCN1CCN(C(=O)CSc2ccc(C)cc2)CC1	-2.47%		29.1 µM [rising, single point]
O=C(NCCN1CCN(C(=O)C(c2ccccc2)c2ccccc2)CC1)C(=O)Nc1ccccc1	169%		18.4 µM [rising, partial curve]
COc1cc(C2CC(c3cccnc3)=NN2c2ccc(F)cc2)cc(OC)c1OC (stereo not given)	44.4%	29.1 µM [rising, single point]	29.1 µM [rising, single point]
CC(CNC(=O)CN1C(=O)c2cccnc2Oc2ccc(Cl)cc21)c1ccccc1 (stereo not given)			23.1 µM [falling, single point]
CCOc1ccc(NC(=O)CSc2nnc(-c3ccccn3)n2N)cc1	6.94%		
NC(=O)C1CCN(C(=O)c2ccc(-c3ccccc3Cl)o2)CC1	8.58%		
Cc1ccc(NC(=O)CC2NCCNC2=O)cc1 (stereo not given)	11.5%		6.51 µM [rising, single point]
COC(=O)c1[nH]c2ccc(F)cc2c1NS(=O)(=O)c1ccc(OC)cc1OC		0.517 µM [rising, single point]	
CC1CC(C)CN(CCOc2ccc(Br)cc2)C1 (stereo not given)	-20.5%	0.13 µM [falling, full curve, poor fit]	0.651 µM [falling, full curve]
CCOc1ccc(CCNC(=O)C2CCCN(S(=O)(=O)N3CC(C)CC(C)C3)C2)cc1OCC (stereo not given)	-1.53%		29.1 µM [rising, single point]
O=C(Nc1c(Cl)cccc1Cl)c1cc(=O)n(Cc2ccccc2)c(=O)[nH]1			0.651 µM [falling, single point]

Structure (SMILES)	cell number change	AC50 [1]	AC50 [2]
Cc1c(C)n(C)c2ccc(C(=O)NCCCN3CCOCC3)cc12	15.3%		29.1 µM [falling, single point]
COc1ccc(CNc2cccc(F)c2)cc1Br	-26.6%		23.1 µM [falling, single point]
O=C(Cc1ccc([N+](=O)[O-])cc1)N1N=C(c2ccncc2)CC1(O)C(F)(F)F (stereo not given)		0.461 µM [rising, single point]	
CN(C)C(CNC(=O)C1CCN(S(=O)(=O)c2ccccc2C(F)(F)F)CC1)Cc1ccccc1 (stereo not given)	7.26%		29.1 µM [rising, single point]
Cc1ccc(C)c(C(=O)c2c(C)nc3sccn23)c1	-21%		0.00461 µM [falling, full curve, poor fit]
CC(=O)c1cccc(OCC(=O)N2CCN(c3ccc(C(F)(F)F)cn3)CC2)c1	8.94%		
O=C(COC(=O)Cn1[nH]c(=O)c2ccccc2c1=O)Nc1ncc(Cl)cc1Cl	-6.62%		6.51 µM [rising, partial curve]
COc1ccc(C(C)=O)cc1CSc1nc2ccccc2o1			0.58 µM [falling, single point]
C[C@@H]1O[C@@H](O[C@H]2[C@H](Oc3cc(O)c4c(c3)O[C@H](c3ccc(O)cc3)CC4=O)O[C@H](CO)[C@@H](O)[C@@H]2O)[C@H](O)[C@H](O)[C@H]1O	91.7%	9.2 µM [rising, partial curve]	
Cc1cc(C)c(NC(=O)CC(=O)c2ccccc2)c(Cl)c1	47.7%	29.1 µM [rising, single point]	29.1 µM [falling, single point]
O=C(/C=C/c1cccc([N+](=O)[O-])c1)NCCSCc1ccc(Cl)cc1Cl	22%	3.26 µM [falling, single point]	3.26 µM [falling, single point]
COc1ccc(NC(=S)N(CCN2CCOCC2)Cc2cc3cc4c(cc3[nH]c2=O)OCO4)cc1	96.8%	0.13 µM [rising, full curve]	0.00461 µM [rising, full curve, poor fit]
COc1cccc(-c2ccc3ncnc(NCc4cccs4)c3c2)c1	-13.5% and -16.1%	4.61 µM [falling, single point]	5.17 µM [falling, single point] and 18.4 µM [falling, single point]
CCC(CC)c1nnc(NC(=O)COc2ccc3c(c2)OCO3)s1	17.1%		0.146 µM [rising, full curve, poor fit]
CCC(C)OC(=O)C1C(c2ccccc2)C(C(=O)O)C1c1ccccc1 (stereo not given)	-49.4%	5.17 µM [falling, full curve]	4.11 µM [falling, full curve]
Cc1ccc(-c2nnc(CSc3nnc(COc4cccc5ccccc45)n3-c3ccccc3)o2)cc1			0.731 µM [rising, single point]
Cc1ccnc2nc(C(=O)NC3=NCCS3)nn12	3.28%		
COc1ccc2nc(NC(=O)C(NS(=O)(=O)c3cccc4nsnc34)C(C)C)sc2c1 (stereo not given)	3.88%		
Cc1ccc2nc(N(CCN(C)C)C(=O)C3=COCCO3)sc2c1	4.91%	0.461 µM [rising, single point]	0.0731 µM [rising, full curve, poor fit]
